Source: paper doi:10.1101/2021.07.05.451109 (bioRxiv, 2021)
These are yes or no findings as the source states them, for the method shown. Binding seen in cells or lysates may run through a third protein. Some results given as binding are weak or reduced against the parent protein; the word gives no strength.

Protein sequences, listed by entry. Tags and fused reporters are not part of them. Residues count along the entry.
UniProt Q9HC97: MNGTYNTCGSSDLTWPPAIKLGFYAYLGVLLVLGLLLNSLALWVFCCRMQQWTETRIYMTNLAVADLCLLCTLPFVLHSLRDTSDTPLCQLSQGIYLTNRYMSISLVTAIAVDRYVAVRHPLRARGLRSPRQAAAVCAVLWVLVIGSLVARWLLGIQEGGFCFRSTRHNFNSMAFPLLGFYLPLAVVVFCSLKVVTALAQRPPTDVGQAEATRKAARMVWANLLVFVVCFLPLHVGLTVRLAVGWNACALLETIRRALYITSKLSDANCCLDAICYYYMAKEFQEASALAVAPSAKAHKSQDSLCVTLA
UniProt P51681: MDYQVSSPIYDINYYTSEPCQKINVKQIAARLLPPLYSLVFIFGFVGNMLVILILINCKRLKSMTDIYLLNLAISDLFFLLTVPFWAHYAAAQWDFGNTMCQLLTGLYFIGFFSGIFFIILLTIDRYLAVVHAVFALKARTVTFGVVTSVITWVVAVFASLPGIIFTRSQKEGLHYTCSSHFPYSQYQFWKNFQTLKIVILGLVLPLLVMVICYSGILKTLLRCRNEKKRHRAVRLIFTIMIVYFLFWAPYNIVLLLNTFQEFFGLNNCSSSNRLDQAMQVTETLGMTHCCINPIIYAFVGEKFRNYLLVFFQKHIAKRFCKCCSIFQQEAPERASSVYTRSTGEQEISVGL
UniProt O14786, residues 22-923: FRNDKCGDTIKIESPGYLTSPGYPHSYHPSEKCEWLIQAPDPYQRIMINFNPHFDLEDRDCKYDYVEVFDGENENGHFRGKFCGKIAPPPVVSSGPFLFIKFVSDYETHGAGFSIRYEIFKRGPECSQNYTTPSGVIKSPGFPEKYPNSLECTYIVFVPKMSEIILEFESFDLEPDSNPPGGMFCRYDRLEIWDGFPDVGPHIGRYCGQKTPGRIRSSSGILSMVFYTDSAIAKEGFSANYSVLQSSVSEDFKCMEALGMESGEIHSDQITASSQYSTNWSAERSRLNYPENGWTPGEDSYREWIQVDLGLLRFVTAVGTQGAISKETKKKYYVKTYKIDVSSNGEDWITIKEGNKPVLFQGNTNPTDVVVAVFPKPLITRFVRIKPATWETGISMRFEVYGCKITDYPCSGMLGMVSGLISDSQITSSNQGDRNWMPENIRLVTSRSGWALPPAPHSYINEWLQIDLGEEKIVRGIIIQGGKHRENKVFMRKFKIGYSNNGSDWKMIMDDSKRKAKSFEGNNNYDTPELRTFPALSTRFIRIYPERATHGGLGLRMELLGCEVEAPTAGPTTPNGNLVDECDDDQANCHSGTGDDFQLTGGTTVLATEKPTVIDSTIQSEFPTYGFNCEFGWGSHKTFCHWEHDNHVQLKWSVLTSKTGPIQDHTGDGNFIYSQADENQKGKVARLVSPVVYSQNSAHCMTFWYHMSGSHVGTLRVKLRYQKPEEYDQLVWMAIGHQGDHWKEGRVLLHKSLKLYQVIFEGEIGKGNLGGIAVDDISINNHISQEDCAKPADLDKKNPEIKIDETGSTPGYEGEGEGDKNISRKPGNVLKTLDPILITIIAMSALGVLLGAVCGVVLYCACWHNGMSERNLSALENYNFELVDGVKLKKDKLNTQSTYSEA
UniProt P32121: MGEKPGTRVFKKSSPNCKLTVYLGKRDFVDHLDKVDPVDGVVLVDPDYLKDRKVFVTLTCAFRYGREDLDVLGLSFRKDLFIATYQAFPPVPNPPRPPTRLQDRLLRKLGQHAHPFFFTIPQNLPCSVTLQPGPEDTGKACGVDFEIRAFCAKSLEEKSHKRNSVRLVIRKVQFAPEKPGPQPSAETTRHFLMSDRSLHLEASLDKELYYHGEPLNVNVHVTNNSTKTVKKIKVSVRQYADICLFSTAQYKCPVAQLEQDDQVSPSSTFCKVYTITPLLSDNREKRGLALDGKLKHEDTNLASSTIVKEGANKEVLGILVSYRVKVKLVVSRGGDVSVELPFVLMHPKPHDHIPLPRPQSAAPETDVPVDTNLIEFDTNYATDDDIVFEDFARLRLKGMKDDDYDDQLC

Experiments:
Test in all cases: FRET or BRET
GPR35/NLuc = GPR35/NLuc (UniProt Q9HC97)
CCR5/Rluc8 = CCR5/Rluc8 (UniProt P51681)
NLuc/NRP1 = NLuc/NRP1 (UniProt O14786)

binding (GPR35/NLuc)	binding (CCR5/Rluc8)	binding (NLuc/NRP1)	Molecule
binds	binds		β-arrestin2/Venus (from UniProt P32121 1-409)
		binds	24Leu-CXCL17 (ligand) LNPGVARGHRDRGQASRRWLQEGGQECECKDWFLRAPRRKFMTVSGLPKKQCPCDHFKGNVKKTRHQRHHRKPNKHSRACQQFLKQCQLRSFALPL
